PMC3616908

molecular target: T1, Chk1 (yeast two-hybrid fusion) (S. cerevisiae) (UniProt P38147); assay: two-hybrid; Clontech Matchmaker Gold system; interaction read by white colony colour, resistance to Aureobasidin A and blue colour on X-alpha-gal (Figure 5A, six clones each); read-out of Figures 6A and S6C-E not told
T1 sequence: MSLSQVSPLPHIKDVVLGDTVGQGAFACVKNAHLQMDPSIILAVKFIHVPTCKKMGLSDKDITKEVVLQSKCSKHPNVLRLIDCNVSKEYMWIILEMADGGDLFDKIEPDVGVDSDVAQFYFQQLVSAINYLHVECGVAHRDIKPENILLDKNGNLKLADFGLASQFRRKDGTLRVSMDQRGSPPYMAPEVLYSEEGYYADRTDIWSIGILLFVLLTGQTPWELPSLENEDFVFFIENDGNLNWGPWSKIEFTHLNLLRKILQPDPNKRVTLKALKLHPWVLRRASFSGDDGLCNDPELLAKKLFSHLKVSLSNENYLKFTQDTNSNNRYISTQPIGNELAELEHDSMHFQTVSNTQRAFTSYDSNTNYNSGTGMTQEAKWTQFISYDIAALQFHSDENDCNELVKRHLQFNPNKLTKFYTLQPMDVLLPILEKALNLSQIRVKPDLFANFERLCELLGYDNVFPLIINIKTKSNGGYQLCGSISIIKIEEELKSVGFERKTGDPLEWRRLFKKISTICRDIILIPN

binding, binds:
Rad9 CAD^CDK1-9A+6D7D (yeast two-hybrid fusion) (S. cerevisiae) (domain or fragment), Rad9 CAD^CDK1-9A+7D (yeast two-hybrid fusion) (S. cerevisiae) (domain or fragment), Rad9 CAD^CDK1-9A+6T (yeast two-hybrid fusion) (S. cerevisiae) (domain or fragment), Rad9 CAD^CDK1-9A+7T (yeast two-hybrid fusion) (S. cerevisiae) (domain or fragment), Rad9 CAD^CDK1-9A+6T7T (yeast two-hybrid fusion) (S. cerevisiae) (domain or fragment), Rad9 CAD^CDK1-9A+6D (yeast two-hybrid fusion) (S. cerevisiae) (domain or fragment)

These are yes or no findings as the source states them, for the method shown. Binding can be weak; no strength is given. Where a sequence is shown, tags or fusion partners need not be part of it.
